No constants are given. Whether binding was seen depends on the method and setting. For some assays here: Binding seen in cells or lysates may run through a third protein. Some entries that bind do so weakly or less than the wild type. Sequences can lack the tags named with a protein.
T1: FANCC N-terminal caspase cleavage fragment FANCC^1-306 (yeast two-hybrid fusion) (UniProt Q00597)
T1 sequence: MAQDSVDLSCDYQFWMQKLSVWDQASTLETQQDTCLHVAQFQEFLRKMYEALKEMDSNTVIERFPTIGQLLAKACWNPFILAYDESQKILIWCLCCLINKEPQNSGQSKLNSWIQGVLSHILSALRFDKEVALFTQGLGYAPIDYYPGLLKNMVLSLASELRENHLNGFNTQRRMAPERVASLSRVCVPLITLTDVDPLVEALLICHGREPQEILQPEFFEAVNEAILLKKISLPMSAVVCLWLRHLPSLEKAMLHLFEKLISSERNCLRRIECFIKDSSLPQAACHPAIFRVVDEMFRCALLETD

T2: HA-tagged UNC5A intracellular domain (HA-UNC5A^ICD) (human) (UniProt Q6ZN44)
T2 sequence: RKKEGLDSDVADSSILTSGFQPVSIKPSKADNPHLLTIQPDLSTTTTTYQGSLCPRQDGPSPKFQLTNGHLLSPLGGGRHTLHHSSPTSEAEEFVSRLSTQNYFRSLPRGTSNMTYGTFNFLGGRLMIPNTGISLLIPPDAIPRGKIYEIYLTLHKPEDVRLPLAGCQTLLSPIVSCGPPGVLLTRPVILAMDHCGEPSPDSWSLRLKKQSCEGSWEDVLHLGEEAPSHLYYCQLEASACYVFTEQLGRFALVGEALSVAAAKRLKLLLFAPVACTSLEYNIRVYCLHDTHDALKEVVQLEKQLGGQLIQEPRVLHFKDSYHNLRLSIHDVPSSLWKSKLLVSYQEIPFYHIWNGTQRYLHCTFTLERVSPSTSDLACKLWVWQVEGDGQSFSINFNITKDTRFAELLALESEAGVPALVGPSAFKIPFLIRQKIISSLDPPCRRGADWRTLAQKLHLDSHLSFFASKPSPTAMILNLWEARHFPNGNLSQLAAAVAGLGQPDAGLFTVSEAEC


Key:
[1] = biological target: T1, FANCC N-terminal caspase cleavage fragment FANCC^1-306 (yeast two-hybrid fusion); assay: two-hybrid; directed assays; UNC5A and FANCC constructs in pGBKT7 or pGADT7 co-transformed into AH109; growth on stringent nutritional selection; at least three independent transformations
[2] = biological target: T2, HA-tagged UNC5A intracellular domain (HA-UNC5A^ICD) (human); assay: co-IP; HEK293T transiently transfected with both proteins; lysis in 50 mM Tris-HCl, 150 mM NaCl, 1% Triton X-100; protein A-agarose beads; Western blotting; control IgG

| Binder | binding [1] | binding [2] |
| --- | --- | --- |
| UNC5A intracellular domain UNC5A^ICD (yeast two-hybrid fusion) (domain or fragment, UniProt Q6ZN44 329-842) RKKEGLDSDVADSSILTSGFQPVSIKPSKADNPHLLTIQPDLSTTTTTYQGSLCPRQDGPSPKFQLTNGHLLSPLGGGRHTLHHSSPTSEAEEFVSRLSTQNYFRSLPRGTSNMTYGTFNFLGGRLMIPNTGISLLIPPDAIPRGKIYEIYLTLHKPEDVRLPLAGCQTLLSPIVSCGPPGVLLTRPVILAMDHCGEPSPDSWSLRLKKQSCEGSWEDVLHLGEEAPSHLYYCQLEASACYVFTEQLGRFALVGEALSVAAAKRLKLLLFAPVACTSLEYNIRVYCLHDTHDALKEVVQLEKQLGGQLIQEPRVLHFKDSYHNLRLSIHDVPSSLWKSKLLVSYQEIPFYHIWNGTQRYLHCTFTLERVSPSTSDLACKLWVWQVEGDGQSFSINFNITKDTRFAELLALESEAGVPALVGPSAFKIPFLIRQKIISSLDPPCRRGADWRTLAQKLHLDSHLSFFASKPSPTAMILNLWEARHFPNGNLSQLAAAVAGLGQPDAGLFTVSEAEC | binds | – |
| EGFP-tagged FANCC^1-306 (domain or fragment, UniProt Q00597 1-306) MAQDSVDLSCDYQFWMQKLSVWDQASTLETQQDTCLHVAQFQEFLRKMYEALKEMDSNTVIERFPTIGQLLAKACWNPFILAYDESQKILIWCLCCLINKEPQNSGQSKLNSWIQGVLSHILSALRFDKEVALFTQGLGYAPIDYYPGLLKNMVLSLASELRENHLNGFNTQRRMAPERVASLSRVCVPLITLTDVDPLVEALLICHGREPQEILQPEFFEAVNEAILLKKISLPMSAVVCLWLRHLPSLEKAMLHLFEKLISSERNCLRRIECFIKDSSLPQAACHPAIFRVVDEMFRCALLETD | – | binds |

— paper PMC3968024
